Laboratory results taken from article PMC7235163.
These are yes or no findings as the source states them, for the method shown. In cells and extracts the contact can be indirect. Some binding calls cover weakened binding; strength is not graded here.

By UniProt entry, the sequences of proteins in these tests, tags left out.
UniProt O14936: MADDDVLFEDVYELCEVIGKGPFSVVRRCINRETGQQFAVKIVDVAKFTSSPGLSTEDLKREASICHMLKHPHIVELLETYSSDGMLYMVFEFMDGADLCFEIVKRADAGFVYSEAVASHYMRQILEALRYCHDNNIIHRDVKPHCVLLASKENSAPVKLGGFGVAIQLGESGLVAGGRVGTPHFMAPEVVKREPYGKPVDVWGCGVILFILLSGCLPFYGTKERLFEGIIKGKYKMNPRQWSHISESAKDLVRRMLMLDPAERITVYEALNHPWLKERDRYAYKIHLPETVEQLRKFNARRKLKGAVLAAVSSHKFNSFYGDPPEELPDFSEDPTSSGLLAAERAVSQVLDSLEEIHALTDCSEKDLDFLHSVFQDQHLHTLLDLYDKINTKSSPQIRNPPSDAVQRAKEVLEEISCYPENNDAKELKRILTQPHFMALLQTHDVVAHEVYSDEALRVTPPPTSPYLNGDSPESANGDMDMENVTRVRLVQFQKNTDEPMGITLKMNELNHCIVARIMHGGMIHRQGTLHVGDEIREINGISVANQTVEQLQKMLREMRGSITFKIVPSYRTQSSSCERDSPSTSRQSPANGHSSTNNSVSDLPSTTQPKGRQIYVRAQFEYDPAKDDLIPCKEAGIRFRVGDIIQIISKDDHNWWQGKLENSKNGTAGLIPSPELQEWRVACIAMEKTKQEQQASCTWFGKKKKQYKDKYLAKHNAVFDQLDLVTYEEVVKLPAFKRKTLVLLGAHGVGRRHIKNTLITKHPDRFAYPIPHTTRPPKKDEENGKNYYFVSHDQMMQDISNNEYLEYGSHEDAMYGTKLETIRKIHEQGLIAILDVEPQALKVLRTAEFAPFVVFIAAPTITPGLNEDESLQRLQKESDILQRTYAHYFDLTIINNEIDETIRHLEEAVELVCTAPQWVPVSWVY
UniProt Q8WUM4: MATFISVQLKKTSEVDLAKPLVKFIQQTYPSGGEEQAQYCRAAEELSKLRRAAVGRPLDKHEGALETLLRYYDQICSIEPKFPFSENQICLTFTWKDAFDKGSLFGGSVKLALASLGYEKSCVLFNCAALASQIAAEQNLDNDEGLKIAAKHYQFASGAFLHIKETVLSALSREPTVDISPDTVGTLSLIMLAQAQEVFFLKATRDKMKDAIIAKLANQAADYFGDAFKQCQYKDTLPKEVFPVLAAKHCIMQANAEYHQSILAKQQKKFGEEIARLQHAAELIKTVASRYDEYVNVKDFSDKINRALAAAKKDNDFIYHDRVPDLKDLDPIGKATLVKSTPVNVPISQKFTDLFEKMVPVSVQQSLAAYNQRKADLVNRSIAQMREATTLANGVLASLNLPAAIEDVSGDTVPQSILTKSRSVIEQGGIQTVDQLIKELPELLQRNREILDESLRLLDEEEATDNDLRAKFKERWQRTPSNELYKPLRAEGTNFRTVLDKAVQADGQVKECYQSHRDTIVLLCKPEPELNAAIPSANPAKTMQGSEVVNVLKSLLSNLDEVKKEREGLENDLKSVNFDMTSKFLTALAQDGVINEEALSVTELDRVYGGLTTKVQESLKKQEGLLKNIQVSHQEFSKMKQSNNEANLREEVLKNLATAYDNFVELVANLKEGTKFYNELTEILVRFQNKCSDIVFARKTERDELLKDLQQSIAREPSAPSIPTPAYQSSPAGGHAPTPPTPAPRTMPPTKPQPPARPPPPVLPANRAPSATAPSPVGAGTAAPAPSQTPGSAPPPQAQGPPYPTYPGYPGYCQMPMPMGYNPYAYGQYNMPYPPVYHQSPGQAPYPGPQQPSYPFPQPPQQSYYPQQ

Target: calcium/calmodulin-dependent serine/threonine kinase (CASK) (human (endogenous in M2 macrophages from healthy donors)) (UniProt O14936)
Test: co-IP; reciprocal co-immunoprecipitation from M2 macrophage lysates (25 mmol/L HEPES, 150 mmol/L NaCl, 1% Brij 97, 4°C), antibodies against CASK or ALIX, Protein G-Sepharose, western blot

Q: For ALIX (from UniProt Q8WUM4 1-868), which binding is on record?
A: binds
